{"source": "PubChem BioAssay AID504786, Drosophila RNAi Screening Center | 2011", "test": "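Fly genes required for HIF-dependent transcription when hypoxia is mimicked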 (primary screen)", "cell system": "Drosophila S2 cells with a stable HIF luciferase reporter", "knock-down reagent": "long dsRNA against Drosophila genes, about 0.2 µg dsRNA per well of a 384-well plate", "duration": "three days of knock-down, then 20 h of DFO before reading", "challenge": "desferrioxamine (DFO) at 100 µM, an iron chelator that mimics hypoxia, for 20 h", "measured": "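HIF reporter luminescence in cells given 100 µM DFO for 20 h, using the mouse ldh-a hypoxia-response element, scored as per-plate z-scores; higher means greater loss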", "reading the numbers": "z-score: higher = stronger loss of HIF reporter signal", "note": "The deposit covers about 21,000 reagents; this is an unselected part of those that have a named target and a result. 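Primary screen; positive scores mean lost reporter signal, so the sign may be inverted from the usual convention.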 Further read-outs or replicates are left out here. Reagent sequences are not shown."}
{"Target gene":"CG34451 (GeneID 5740612)","DRSC id":"DRSC09388","z-score, replicate 1":-0.8}
{"Target gene":"CG34451 (GeneID 5740612)","DRSC id":"DRSC09389","z-score, replicate 1":0.9}
{"Target gene":"CG15765 (GeneID 31513)","DRSC id":"DRSC18071","z-score, replicate 1":0}
{"Target gene":"CG14455 (GeneID 40480)","DRSC id":"DRSC11712","z-score, replicate 1":-0.3}
{"Target gene":"CG42541 (GeneID 31344)","DRSC id":"DRSC17973","z-score, replicate 1":-0.3}
{"Target gene":"CG42541 (GeneID 31344)","DRSC id":"DRSC18119","z-score, replicate 1":1.9}
{"Target gene":"CG42541 (GeneID 31344)","DRSC id":"DRSC18120","z-score, replicate 1":-0.2}
{"Target gene":"Use1 (GeneID 39051)","DRSC id":"DRSC10180","z-score, replicate 1":-0.4}
{"Target gene":"CG2617 (GeneID 35331)","DRSC id":"DRSC02712","z-score, replicate 1":-0.3}
{"Target gene":"CG9616 (GeneID 41731)","DRSC id":"DRSC16518","z-score, replicate 1":-0.1}
{"Target gene":"CG1172 (GeneID 40647)","DRSC id":"DRSC12182","z-score, replicate 1":-0.4}
{"Target gene":"Idgf2 (GeneID 34979)","DRSC id":"DRSC03350","z-score, replicate 1":-0.2}
{"Target gene":"Pal1 (GeneID 36033)","DRSC id":"DRSC06106","z-score, replicate 1":-0.3}
{"Target gene":"CRIF (GeneID 40395)","DRSC id":"DRSC11811","z-score, replicate 1":1.1}
{"Target gene":"Orc4 (GeneID 37970)","DRSC id":"DRSC04634","z-score, replicate 1":0}
{"Target gene":"nocte (GeneID 31976)","DRSC id":"DRSC18123","z-score, replicate 1":-0.6}

Already shown: an excerpt of the list.
{"Target gene":"CG15765 (GeneID 31513)","DRSC id":"DRSC18071","z-score, replicate 1":0}
{"Target gene":"CG14455 (GeneID 40480)","DRSC id":"DRSC11712","z-score, replicate 1":-0.3}
{"Target gene":"CG42541 (GeneID 31344)","DRSC id":"DRSC17973","z-score, replicate 1":-0.3}
{"Target gene":"CG42541 (GeneID 31344)","DRSC id":"DRSC18119","z-score, replicate 1":1.9}
{"Target gene":"CG42541 (GeneID 31344)","DRSC id":"DRSC18120","z-score, replicate 1":-0.2}
{"Target gene":"Use1 (GeneID 39051)","DRSC id":"DRSC10180","z-score, replicate 1":-0.4}

The list goes on:
{"Target gene":"Rpi (GeneID 246599)","DRSC id":"DRSC04583","z-score, replicate 1":-0.4}
{"Target gene":"Gbeta13F (GeneID 32544)","DRSC id":"DRSC20247","z-score, replicate 1":-0.4}
{"Target gene":"CG3597 (GeneID 33420)","DRSC id":"DRSC00617","z-score, replicate 1":-0.2}
{"Target gene":"CG32240 (GeneID 317933)","DRSC id":"DRSC08093","z-score, replicate 1":-0.1}
{"Target gene":"Nrt (GeneID 39873)","DRSC id":"DRSC11237","z-score, replicate 1":-0.3}
{"Target gene":"mrva (GeneID 38808)","DRSC id":"DRSC11009","z-score, replicate 1":-0.3}
{"Target gene":"CG34288 (GeneID 5740644)","DRSC id":"DRSC13564","z-score, replicate 1":-0.6}
{"Target gene":"CG3224 (GeneID 31600)","DRSC id":"DRSC18295","z-score, replicate 1":-0.2}
{"Target gene":"CG7724 (GeneID 39918)","DRSC id":"DRSC10905","z-score, replicate 1":-0.3}
{"Target gene":"Grip75 (GeneID 34441)","DRSC id":"DRSC03337","z-score, replicate 1":-0.3}
{"Target gene":"gcm2 (GeneID 34280)","DRSC id":"DRSC03538","z-score, replicate 1":-0.3}
{"Target gene":"Lipt1 (GeneID 36795)","DRSC id":"DRSC05600","z-score, replicate 1":-0.3}
{"Target gene":"Lipt1 (GeneID 36795)","DRSC id":"DRSC07183","z-score, replicate 1":-0.1}
{"Target gene":"CG6878 (GeneID 39656)","DRSC id":"DRSC10737","z-score, replicate 1":-0.5}
{"Target gene":"CG7650 (GeneID 39694)","DRSC id":"DRSC10898","z-score, replicate 1":-0.2}
{"Target gene":"GluProRS (GeneID 42834)","DRSC id":"DRSC14095","z-score, replicate 1":0}
{"Target gene":"bou (GeneID 31644)","DRSC id":"DRSC17924","z-score, replicate 1":-0.2}
{"Target gene":"Leash (GeneID 41320)","DRSC id":"DRSC15617","z-score, replicate 1":-0.4}
{"Target gene":"BicD (GeneID 35051)","DRSC id":"DRSC02006","z-score, replicate 1":-0.2}
{"Target gene":"CG14384 (GeneID 41588)","DRSC id":"DRSC14842","z-score, replicate 1":-0.3}
{"Target gene":"Nelf-E (GeneID 38982)","DRSC id":"DRSC10567","z-score, replicate 1":-0.5}
{"Target gene":"CG5235 (GeneID 39758)","DRSC id":"DRSC10494","z-score, replicate 1":-0.1}
{"Target gene":"CG13694 (GeneID 33169)","DRSC id":"DRSC00363","z-score, replicate 1":-0.1}
{"Target gene":"Amt (GeneID 41841)","DRSC id":"DRSC16055","z-score, replicate 1":-0.3}
